Measured values from patent US20240218023A1 (MICROBIO (SHANGHAI) CO., LTD., priority 2021, published 2024).
Strings that start with PEPTIDE1 are HELM notation: dots part the residues, brackets hold end groups and non-standard residues.

Test: general procedure: Fmoc solid-phase peptide synthesis; CTC resin
Settings: for conjugation yield / final HPLC purity: conjugation step; for final HPLC purity: 214 nm

Substance	step yield (late stage modification step)	conjugation yield	final HPLC purity	cyclisation yield (cyclisation step)
Benzyl (6-(3-((2S,5S,11S,17S)-5,11,17-tris(4-aminobutyl)-3,6,9,12,15,18-hexaoxo-1,4,7,10,13,16-hexaazacyclooctadecan-2-yl)propanamido)hexyl)carbamate	98.8%	–	–	–
PEPTIDE1{[dK].[dE].[dK].G.[dK].G}|CHEM1{[Gal3acyl]}|CHEM2{[Gal3acyl]}|CHEM3{[Gal3acyl]}|CHEM4{[HDA5FAM]}$PEPTIDE1,PEPTIDE1,1:R1-6:R2|PEPTIDE1,CHEM1,1:R3-1:R2|PEPTIDE1,CHEM2,3:R3-1:R2|PEPTIDE1,CHEM3,5:R3-1:R2|PEPTIDE1,CHEM4,2:R3-1:R1$$$V2.0	–	54%	98.15%	–
Benzyl (6-(3-((2S,5S,11S,17S)-5,11,17-tris(4-((tert-butoxycarbonyl)amino)butyl)-3,6,9,12,15,18-hexaoxo-1,4,7,10,13,16-hexaazacyclooctadecan-2-yl)propanamido)hexyl)carbamate	–	–	–	62.7%
PEPTIDE1{K.E.K.G.K.G}|CHEM1{[Gal3acyl]}|CHEM2{[Gal3acyl]}|CHEM3{[Gal3acyl]}|CHEM4{[HDA5FAM]}$PEPTIDE1,PEPTIDE1,1:R1-6:R2|PEPTIDE1,CHEM1,1:R3-1:R2|PEPTIDE1,CHEM2,3:R3-1:R2|PEPTIDE1,CHEM3,5:R3-1:R2|PEPTIDE1,CHEM4,2:R3-1:R1$$$V2.0	–	38%	97.57%	–
